Patent publication US9278925B2, “Substituted 3-(biphenyl-3-yl)-4-hydroxy-8-methoxy-1-azaspiro[4.5]dec-3-en-2-one” (BAYER INTELLECTUAL PROPERTY GMBH, priority 2011, dated 2016)
Not every entry of the source has a single result; some have several. The list is limited to them. There may be further records. Values that stand side by side differ, and nothing given here explains why; they may come from other doses, times, organisms or constructs than stated.

Tested on: human ACC1
Assay: Human ACC1 enzyme assay (ADP-Glo)
Type: biochemical
Details: pairwise, same dilution series

Row | SMILES | Ratio IC50s ACC2/ACC1 (respective measurement) | Ratio IC50s ACC2/ACC1 (respective measurement) (listed as V.4-a)
1 | CO[C@]1(C)CC[C@]2(CC1)NC(=O)C(c1cc(-c3ccc(Cl)cc3)ccc1C)=C2O [Example V.1-a, (5r,8r)-3-(4′-Chloro-4-methylbiphenyl-3-yl)-4-hydroxy-8-methoxy-8-methyl-1-azaspiro[4.5]dec-3-en-2-one] | 35 and 36 | 
2 | CO[C@]1(C)CC[C@]2(CC1)NC(=O)C(c1cc(-c3ccc(Cl)c(F)c3)ccc1C)=C2O [Example V.2-a, (5r,8r)-3-(4′-Chloro-3′-fluoro-4-methylbiphenyl-3-yl)-4-hydroxy-8-methoxy-8-methyl-1-azaspiro[4.5]dec-3-en-2-one] | 44.5, 24.8, 38.5 | 44.5, 24.8, 38.5
